The source of these data is article PMC5313212.

Results are given in words; binding and its absence hold for the method and conditions named.

Experiment [1] deals with human KISS1 without the secretion signal peptide (residues 19-138) (human) (UniProt Q15726). The experiment can be described thus: SEC-MALS; Superdex 200 10/300 GL, 25°C, PBS pH 7.0, 1 mM TCEP, 0.03% NaN3; 100 μL of Kiss1 at 0.8 g/L injected at 0.5 mL/min; both purified.
For experiment [2] the target is unchanged. The experiment can be described thus: SAXS; 10°C, 4.0 and 1.0 g/L in PBS pH 7.0, 1 mM DTT; curves at both concentrations merged; molecular weight calculated with Scåtter; both purified.

B1: human KISS1 without the secretion signal peptide (residues 19-138) (protein, UniProt Q15726 19-138)
chain: GEPLEKVASVGNSRPTGQQLESLGLLAPGEQSLPCTERKPAATARLSRRGTSLSPPPESSGSPQQPGLSAPHSRQIPAPQGAVLVQREKDLPNYNWNSFGLRFGKREAAPGNHGRSAGRG
For the molecule B1, the binding result in experiment [1] is “no binding (tested: 0.8 g/L)”; in experiment [2], “no binding (tested: 1.0 and 4.0 g/L)”.
